Binding data for one substance are collected here from patent US20220280511A1, “CDK4/6 INHIBITORS FOR THE TREATMENT OF PSORIASIS” (EBERHARD KARLS UNIVERSITAET TUEBINGEN MEDIZINISCHE FAKULTAET, priority 2019, published 2022).

Protein sequences, listed by entry. Tags and fused reporters are not part of them.
UniProt Q15910: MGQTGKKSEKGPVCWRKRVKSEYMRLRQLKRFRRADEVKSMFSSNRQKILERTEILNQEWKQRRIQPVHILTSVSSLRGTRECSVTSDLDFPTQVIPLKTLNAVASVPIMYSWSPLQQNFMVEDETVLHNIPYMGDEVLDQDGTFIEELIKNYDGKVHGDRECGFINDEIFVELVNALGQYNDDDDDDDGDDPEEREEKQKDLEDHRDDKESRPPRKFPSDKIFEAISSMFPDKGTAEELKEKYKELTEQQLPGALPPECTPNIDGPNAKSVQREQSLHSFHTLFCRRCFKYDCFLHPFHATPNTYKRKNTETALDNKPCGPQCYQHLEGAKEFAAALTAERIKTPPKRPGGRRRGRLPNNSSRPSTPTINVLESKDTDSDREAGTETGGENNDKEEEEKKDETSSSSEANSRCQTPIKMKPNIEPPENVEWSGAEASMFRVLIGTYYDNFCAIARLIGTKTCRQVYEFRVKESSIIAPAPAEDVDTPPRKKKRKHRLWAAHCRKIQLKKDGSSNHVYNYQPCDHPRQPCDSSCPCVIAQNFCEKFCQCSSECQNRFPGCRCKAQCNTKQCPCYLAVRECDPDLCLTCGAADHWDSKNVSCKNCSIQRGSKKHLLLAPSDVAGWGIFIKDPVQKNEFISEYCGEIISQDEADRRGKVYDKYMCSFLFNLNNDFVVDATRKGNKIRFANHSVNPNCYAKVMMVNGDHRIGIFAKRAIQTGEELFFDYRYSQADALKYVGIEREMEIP
UniProt Q00534: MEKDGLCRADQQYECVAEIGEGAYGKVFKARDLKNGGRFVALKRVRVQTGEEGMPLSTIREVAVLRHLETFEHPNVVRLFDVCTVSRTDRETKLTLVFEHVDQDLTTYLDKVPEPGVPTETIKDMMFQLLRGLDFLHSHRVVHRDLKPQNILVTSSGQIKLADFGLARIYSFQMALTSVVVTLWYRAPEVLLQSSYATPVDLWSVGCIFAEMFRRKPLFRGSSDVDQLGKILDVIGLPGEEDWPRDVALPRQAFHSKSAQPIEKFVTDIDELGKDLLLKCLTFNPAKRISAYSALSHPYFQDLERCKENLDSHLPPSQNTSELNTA

These are yes or no findings as the source states them, for the method shown. Binding seen in cells or lysates may run through a third protein. Some results given as binding are weak or reduced against the parent protein; the word gives no strength.

Experiment [1] addresses EZH2 (wildtype, transiently overexpressed in HEK293T cells) (UniProt Q15910). The experiment can be described thus: co-immunoprecipitation from HEK293T cells overexpressing EZH2 and CDK6 (FIG. 5c).
For experiment [2] the target is unchanged. Description: co-immunoprecipitation (pulldown with CDK6-specific antibody) from HEK293T cells overexpressing EZH2 and CDK6.

Regarding “CDK6 (from UniProt Q00534 1-326) (enzyme)”, the binding entry in experiment [1] and in experiment [2] was “binds” in each case.
